Results are given in words; binding and its absence hold for the method and conditions named. In cells and extracts the contact can be indirect. Here binding means that the protein was enriched with, or labelled near, the bait; the list need not be complete.
Target: FLAG-WT-PRMT5 (protein arginine methyltransferase 5, wild type) (human) (UniProt O14744)
Assay: affinity purification with mass spectrometry; mass spectrometry identification of kinases immunoprecipitated with WT-PRMT5

By UniProt entry, the sequences of proteins in these tests, tags left out.
UniProt O14744: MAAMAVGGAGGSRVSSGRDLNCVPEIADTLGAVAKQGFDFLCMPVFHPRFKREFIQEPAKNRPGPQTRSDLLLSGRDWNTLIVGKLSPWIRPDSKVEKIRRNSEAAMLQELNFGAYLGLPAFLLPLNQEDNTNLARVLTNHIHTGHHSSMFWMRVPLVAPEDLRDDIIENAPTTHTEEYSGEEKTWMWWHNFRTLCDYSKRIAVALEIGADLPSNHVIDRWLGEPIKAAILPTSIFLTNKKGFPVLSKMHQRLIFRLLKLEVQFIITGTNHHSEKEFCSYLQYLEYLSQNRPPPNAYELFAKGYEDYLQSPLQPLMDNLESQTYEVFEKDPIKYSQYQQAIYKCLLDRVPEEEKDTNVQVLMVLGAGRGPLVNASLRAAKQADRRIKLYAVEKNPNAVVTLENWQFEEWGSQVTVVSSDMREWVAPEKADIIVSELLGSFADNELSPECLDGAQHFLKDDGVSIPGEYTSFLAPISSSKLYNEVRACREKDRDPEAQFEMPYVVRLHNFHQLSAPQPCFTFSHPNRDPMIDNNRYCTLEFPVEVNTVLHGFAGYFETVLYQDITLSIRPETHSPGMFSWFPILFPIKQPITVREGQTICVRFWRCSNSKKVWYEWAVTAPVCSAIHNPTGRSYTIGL

B1: PKCι (enzyme, UniProt P41743 1-596)
chain: MPTQRDSSTMSHTVAGGGSGDHSHQVRVKAYYRGDIMITHFEPSISFEGLCNEVRDMCSFDNEQLFTMKWIDEEGDPCTVSSQLELEEAFRLYELNKDSELLIHVFPCVPERPGMPCPGEDKSIYRRGARRWRKLYCANGHTFQAKRFNRRAHCAICTDRIWGLGRQGYKCINCKLLVHKKCHKLVTIECGRHSLPQEPVMPMDQSSMHSDHAQTVIPYNPSSHESLDQVGEEKEAMNTRESGKASSSLGLQDFDLLRVIGRGSYAKVLLVRLKKTDRIYAMKVVKKELVNDDEDIDWVQTEKHVFEQASNHPFLVGLHSCFQTESRLFFVIEYVNGGDLMFHMQRQRKLPEEHARFYSAEISLALNYLHERGIIYRDLKLDNVLLDSEGHIKLTDYGMCKEGLRPGDTTSTFCGTPNYIAPEILRGEDYGFSVDWWALGVLMFEMMAGRSPFDIVGSSDNPDQNTEDYLFQVILEKQIRIPRSLSVKAASVLKSFLNKDPKERLGCHPQTGFADIQGHPFFRNVDWDMMEQKQVVPPFKPNISGEFGLDNFDSQFTNEPVQLTPDDDDIVRKIDQSEFEGFEYINPLLMSAEECV
binding: binds

Reference: publication PMC7279388
